Measured values: patent US8962654B2 (Eli Lilly and Company, priority 2013, dated 2015)

Test system: hD1 KI mouse hippocampus
Assay: Extracellular levels of acetylcholine by microdialysis in the hippocampus
Type: in vivo, mice
Settings: 1 mg/kg IP

## COc1cc2c(cc1OC)C(=O)C(CC1CCN(Cc3ccccc3)CC1)C2 (centres unmarked) [Donepezil, reference compound]
hD1 KI mouse hippocampus, AUC relative to pre-injection baseline
  ACh Response AUC ± SEM (2 hr): 1472 ± 120
Result in words
  extracellular levels of Ach compared to vehicle controls: statistically significant increase
